The target of test [1] is neural Wiskott-Aldrich syndrome protein (N-WASP) (human (endogenous in BeWo)) (UniProt O00401). The experiment in a line: co-IP; BeWo cells (1 x 10^7) lysed in NP-40 buffer; 5 ug N-WASP antibody or Myosin Ib antibody overnight at 4 °C, protein A/G magnetic beads 3 h at room temperature; eluate analysed by Western blot. A general note: Immunoblotting shows a protein as a band on a membrane.

Amino acid sequences for entries named in this document (tags omitted).
UniProt O00401: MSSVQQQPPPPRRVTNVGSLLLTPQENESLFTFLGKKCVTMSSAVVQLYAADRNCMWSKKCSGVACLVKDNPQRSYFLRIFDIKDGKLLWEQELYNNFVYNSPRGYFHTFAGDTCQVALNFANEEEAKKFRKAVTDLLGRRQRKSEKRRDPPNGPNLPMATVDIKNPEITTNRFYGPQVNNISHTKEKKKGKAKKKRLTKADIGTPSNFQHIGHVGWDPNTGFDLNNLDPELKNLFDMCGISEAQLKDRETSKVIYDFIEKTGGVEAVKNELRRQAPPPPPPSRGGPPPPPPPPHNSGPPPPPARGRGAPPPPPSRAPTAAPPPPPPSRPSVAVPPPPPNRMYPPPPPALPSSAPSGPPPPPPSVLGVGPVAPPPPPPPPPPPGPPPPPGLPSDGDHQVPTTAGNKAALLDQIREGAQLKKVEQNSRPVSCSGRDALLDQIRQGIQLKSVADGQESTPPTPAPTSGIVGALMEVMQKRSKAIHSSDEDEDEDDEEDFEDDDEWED
UniProt O43795: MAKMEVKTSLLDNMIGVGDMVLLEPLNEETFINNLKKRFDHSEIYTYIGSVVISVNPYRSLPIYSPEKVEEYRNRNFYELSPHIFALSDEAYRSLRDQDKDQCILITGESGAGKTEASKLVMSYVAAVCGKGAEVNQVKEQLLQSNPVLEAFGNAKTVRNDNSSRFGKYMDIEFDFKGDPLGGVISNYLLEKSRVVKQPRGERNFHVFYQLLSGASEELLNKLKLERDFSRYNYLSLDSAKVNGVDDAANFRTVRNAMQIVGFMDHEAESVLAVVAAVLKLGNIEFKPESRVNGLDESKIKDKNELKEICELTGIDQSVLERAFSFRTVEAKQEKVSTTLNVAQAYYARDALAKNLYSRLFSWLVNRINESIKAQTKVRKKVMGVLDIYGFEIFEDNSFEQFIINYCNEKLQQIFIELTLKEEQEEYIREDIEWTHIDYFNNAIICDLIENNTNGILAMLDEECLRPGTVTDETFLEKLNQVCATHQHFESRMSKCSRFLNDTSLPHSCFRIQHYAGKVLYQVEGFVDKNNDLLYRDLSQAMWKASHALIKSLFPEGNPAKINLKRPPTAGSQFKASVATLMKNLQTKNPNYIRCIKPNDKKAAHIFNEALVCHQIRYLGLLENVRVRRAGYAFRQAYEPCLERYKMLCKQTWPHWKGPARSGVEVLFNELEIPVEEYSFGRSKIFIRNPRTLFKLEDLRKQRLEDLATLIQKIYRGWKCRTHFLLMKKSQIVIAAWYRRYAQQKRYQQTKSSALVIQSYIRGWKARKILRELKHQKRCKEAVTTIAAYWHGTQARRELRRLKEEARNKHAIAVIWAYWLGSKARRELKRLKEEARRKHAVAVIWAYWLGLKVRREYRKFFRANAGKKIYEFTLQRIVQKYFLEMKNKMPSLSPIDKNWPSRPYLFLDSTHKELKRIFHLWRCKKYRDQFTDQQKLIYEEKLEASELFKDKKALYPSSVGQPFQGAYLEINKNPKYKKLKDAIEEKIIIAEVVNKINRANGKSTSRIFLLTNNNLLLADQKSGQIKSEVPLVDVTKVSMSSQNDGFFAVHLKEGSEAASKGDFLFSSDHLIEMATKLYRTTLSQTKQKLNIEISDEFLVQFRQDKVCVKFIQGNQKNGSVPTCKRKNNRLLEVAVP

The target of test [2] is myosin 1B (MYO1B) (human (endogenous in BeWo)) (UniProt O43795). Described as above.

No constants are given. Whether binding was seen depends on the method and setting. Binding seen in cells or lysates may run through a third protein. Some binding calls cover weakened binding; strength is not graded here.

This passage reports binding results from PMC12630028.

Consider “myosin 1B (MYO1B) (from UniProt O43795 1-1136)”, for which, in test [1], the binding result is “binds”. Take “neural Wiskott-Aldrich syndrome protein (N-WASP) (from UniProt O00401 1-505)”: the binding entry in test [2] is given as “binds”.
